Assay results: publication PMC12137164
These are yes or no findings as the source states them, for the method shown. In cells and extracts the contact can be indirect. Some binding calls cover weakened binding; strength is not graded here.

Protein sequences, listed by entry. Tags and fused reporters are not part of them.
UniProt Q9UKL0: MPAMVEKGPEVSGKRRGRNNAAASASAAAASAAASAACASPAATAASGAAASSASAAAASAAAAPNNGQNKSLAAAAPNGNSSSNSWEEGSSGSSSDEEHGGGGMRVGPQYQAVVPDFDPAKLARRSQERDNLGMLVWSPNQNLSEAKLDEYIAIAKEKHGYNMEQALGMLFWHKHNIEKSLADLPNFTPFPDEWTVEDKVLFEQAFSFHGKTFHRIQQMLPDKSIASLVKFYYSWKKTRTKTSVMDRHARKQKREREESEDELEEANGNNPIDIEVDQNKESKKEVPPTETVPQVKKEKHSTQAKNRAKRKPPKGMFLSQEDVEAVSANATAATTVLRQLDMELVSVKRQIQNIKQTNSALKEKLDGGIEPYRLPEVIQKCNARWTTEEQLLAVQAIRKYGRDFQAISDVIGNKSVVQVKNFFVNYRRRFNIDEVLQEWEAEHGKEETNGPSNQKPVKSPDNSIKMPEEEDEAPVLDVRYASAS

Biological target: T1, hexokinase domain-containing protein 1 (HKDC1) (human (endogenous in SW620 and DLD1)) (UniProt Q2TB90)
T1 sequence: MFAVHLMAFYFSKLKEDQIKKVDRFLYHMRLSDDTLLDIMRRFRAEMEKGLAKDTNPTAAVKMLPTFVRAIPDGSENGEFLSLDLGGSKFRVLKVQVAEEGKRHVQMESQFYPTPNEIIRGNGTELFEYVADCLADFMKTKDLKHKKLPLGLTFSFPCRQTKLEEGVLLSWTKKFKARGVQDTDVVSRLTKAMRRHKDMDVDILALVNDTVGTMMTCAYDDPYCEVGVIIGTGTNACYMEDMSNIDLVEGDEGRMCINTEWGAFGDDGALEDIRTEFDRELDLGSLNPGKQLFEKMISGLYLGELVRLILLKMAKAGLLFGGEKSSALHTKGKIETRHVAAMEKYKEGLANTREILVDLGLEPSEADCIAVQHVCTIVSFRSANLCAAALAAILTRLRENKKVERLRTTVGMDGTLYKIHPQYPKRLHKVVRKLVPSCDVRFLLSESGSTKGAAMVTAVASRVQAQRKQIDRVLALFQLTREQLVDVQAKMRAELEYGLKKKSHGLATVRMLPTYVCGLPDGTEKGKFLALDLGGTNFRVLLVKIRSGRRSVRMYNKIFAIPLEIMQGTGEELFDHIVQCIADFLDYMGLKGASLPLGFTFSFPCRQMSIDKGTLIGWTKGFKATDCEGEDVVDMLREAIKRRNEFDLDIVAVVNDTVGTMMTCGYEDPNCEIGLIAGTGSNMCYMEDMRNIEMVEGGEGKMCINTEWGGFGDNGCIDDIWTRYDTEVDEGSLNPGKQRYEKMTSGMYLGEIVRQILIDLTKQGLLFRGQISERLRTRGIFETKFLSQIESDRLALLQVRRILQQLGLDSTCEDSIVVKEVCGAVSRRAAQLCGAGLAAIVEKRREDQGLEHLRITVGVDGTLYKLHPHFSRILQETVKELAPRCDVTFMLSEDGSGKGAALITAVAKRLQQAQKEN
Assay: co-IP; SW620 and DLD1 lysates (RIPA with PMSF) incubated with anti-HKDC1 or anti-RCOR1 antibodies, then Protein A/G magnetic beads; SDS-PAGE and Western blot

“REST Corepressor 1 (RCOR1) (from UniProt Q9UKL0 1-485)” was tested, and the binding was “binds”.
